Results: the supplement of paper PMC5949888
± gives the standard deviation of the averaged measurements. Most values lie at the floor of the assay. Slopes are relative: functional sequences can read slightly below zero.

Test system: Saccharomyces cerevisiae PS128 hsf1 delta, HSF1(1-493) fusion
Experiment: growth estimate (transactivation domain function in HSF1 fusion, heat-shock survival) (a.u. (slope of normalised read count over time)); higher = stronger growth at 37°C, i.e. more transactivation activity
Conditions: library: random library

| Substance | growth estimate |
| --- | --- |
| VAQARRPR | -0.246 |
| VARNTANLAFTEKSRGWIRV | < -0.25 |
| VARQTVGRSITTRQRLQSSW | < -0.25 |
| VASDGWTISRDR | -0.246 |
| VASGRWSI | < -0.25 |
| VASRTL | < -0.25 |
| VASSPQELRLVEAHPPHEQL | < -0.25 |
| VASVNATRTVAYPCH | < -0.25 |
| VASWPHSGAPSSIHTSACQG | < -0.25 |
| VATKQCTPLVSIVTLGGGVS | < -0.25 |
| VATWDR | < -0.25 |
| VAVAH | < -0.25 |
| VAVLRGRMNLHPL | < -0.25 |
| VAWDCVCRKCIKEKFRSVDS | < -0.25 |
| VAYGSLNLSQTVVGSTAI | < -0.25 |
| VAYVDAPAGSARICRDHVIT | < -0.25 |
| VCACNSVVVQRFGQLRRAEC | < -0.25 |
| VCALA | < -0.25 |
| VCASMG | < -0.25 |
| VCAVEVRENQRGVHVYSEIT | < -0.25 |
| VCCRRSIIRKG | < -0.25 |
| VCEGLWSMMDLQVLASHR | -0.249 |
| VCGRLQA | < -0.25 |
| VCGVK | < -0.25 |
| VCHFFYVCRSVVHSSAACSI | < -0.25 |

| Substance | growth estimate |
| --- | --- |
| VCITTLQGLMPDGAVEGR | < -0.25 |
| VCITWPW | < -0.25 |
| VCKASGSQKEIRGDTRALRP | < -0.25 |
| VCLARAESSGLTRLRKWCLC | -0.245 |
| VCLCKRKALLFMMNG | < -0.25 |
| VCLPLPNGKWADGGILTV | < -0.25 |
| VCLRRFWQHH | < -0.25 |
| VCNQVSLVQPDEAERSLRRS | < -0.25 |
| VCNRCRSM | -0.009 |
| VCPCASTTRNLRGVIVELVH | < -0.25 |
| VCPFDNGGCKTVSKEMDRAF | -0.245 |
| VCPSLASDRGGRFCNSPSAL | < -0.25 |
| VCSHSE | < -0.25 |
| VCSTAHLI | < -0.25 |
| VCSVINRTATETSSTPPLKW | < -0.25 |
| VCTCYSCPCVLAILSRHGSH | < -0.25 |
| VCTDSREKKRGGPLDPRK | -0.243 |
| VCTGLHCLGRNFQIAKRMHG | < -0.25 |
| VCTWTSRNRRP | < -0.25 |
| VCVVSRIELSVHGAIRDM | < -0.25 |
| VCVYATGEMTKY | < -0.25 |
| VDACYRHFSFIDDGLPTTSA | < -0.25 |
| VDAVLACP | < -0.25 |
| VDCLCPKCRFE | < -0.25 |
| VDFGAVVIVLYEDTVDSGHK | < -0.25 |

Single entries from the list.
growth estimate, VCTGLHCLGRNFQIAKRMHG is entered as < -0.25
growth estimate, VCSHSE is entered as < -0.25
growth estimate, VCVYATGEMTKY is entered as < -0.25

Carrying on:

| Substance | growth estimate |
| --- | --- |
| VDGHPMRQTNICLMTRIPSP | < -0.25 |
| VDGNG | < -0.25 |
| VDGQHLQGEKWTGSWRVNNR | < -0.25 |
| VDKRT | < -0.25 |
| VDLFGAVGSFSVELK | < -0.25 |
| VDLGTSPPLRRNISCYLIDQ | < -0.25 |
| VDLRVPAVPGAKRCGVMIDL | < -0.25 |
| VDLSSIDYENCTPAEKMTRS | < -0.25 |
| VDNKFAALER | -0.243 |
| VDNNRDGSLGMEVMEIRKHV | < -0.25 |
| VDP | < -0.25 |
| VDPRE | < -0.25 |
| VDQKARSCH | < -0.25 |
| VDR | < -0.25 |
| VDRGWESLNYGNAVTFKKFQ | < -0.25 |
| VDRLGNRACTSTFDAAF | < -0.25 |
| VDRVAARITMQRKQHQTVKL | < -0.25 |
| VDRVASGSEIRRLVEPGVDF | < -0.25 |
| VDSGDNG | -0.246 |
| VDSHLIILRSRTLEYIHTQV | < -0.25 |
| VDSLGVAQKKFQANICDSLG | < -0.25 |
| VDTYLWKAIACLTDQ | < -0.25 |
| VDVCVESRPWWTE | < -0.25 |
| VDVRFLLV | < -0.25 |
| VDWLAMLERSIVIFQRPGDT | < -0.25 |

| Substance | growth estimate |
| --- | --- |
| VDWM | -0.231 |
| VDYIYSVPMWSGTFQ | < -0.25 |
| VEAYGHSIVCKLGVCWGRVF | < -0.25 |
| VECLTIPLEARLRLVGCRRL | < -0.25 |
| VECTRRL | < -0.25 |
| VEFGSFICIAGPPRPDSSLQ | < -0.25 |
| VEGLGATGTRWYG | < -0.25 |
| VELEAFG | < -0.25 |
| VELQGTIITVTNAFLVILFF | -0.245 |
| VELVSAIGLELMRTIP | < -0.25 |
| VEPKHAGMASLLGPRGPPRS | < -0.25 |
| VEPVLNLLGTPSSLREWHNM | < -0.25 |
| VERCSGQCPCS | < -0.25 |
| VERDGIASQLSYG | < -0.25 |
| VERETISTTPNGVWALRGSP | < -0.25 |
| VESAGFTTEGIIVRSTPD | < -0.25 |
| VESVRAPQ | < -0.25 |
| VETRELAFHGFDVGALEYAG | < -0.25 |
| VETRVRVLQRRLVRTHYPQR | < -0.25 |
| VETVGTTDLTYRALVKRRLW | < -0.25 |
| VEV | -0.242 ± 0.011 |
| VEVEMCDSYGSASDSADQTG | < -0.25 |
| VEVLI | < -0.25 |
| VFACSVVYEGIGSVWASIFP | < -0.25 |
| VFEAW | < -0.25 |

| Substance | growth estimate |
| --- | --- |
| VFEVLCTACISVGEVTHARP | < -0.25 |
| VFEVLLSFSFEVMLSNDRYL | < -0.25 |
| VFGFCHVARKWGNPLVKFSR | < -0.25 |
| VFGHSASRKEWIIVQIGACN | < -0.25 |
| VFGRRESGLSGESRTGIRSL | < -0.25 |
| VFL | < -0.25 |
| VFLERAQRSRY | < -0.25 |
| VFLTSVTLLPVAQGPQV | < -0.25 |
| VFNIVT | -0.229 |
| VFNY | < -0.25 |
| VFPFGVRLQGVSKMGAP | < -0.25 |
| VFQKAR | < -0.25 |
| VFQNLTPHRTQHFSESRIAP | < -0.25 |
| VFQPCI | < -0.25 |
| VFQSWSLPCGALREAAWG | < -0.25 |
| VFRASHR | < -0.25 |
| VFRFCIG | < -0.25 |
| VFRGRQS | < -0.25 |
| VFRTVTIFESEALVEYHQVP | < -0.25 |
| VFS | < -0.25 |
| VFSIGLNGDSIYKSKAVCRR | < -0.25 |
| VFSRQEYVLVGLFTTHY | < -0.25 |
| VFSSSPPAVSSTLPCIIVRG | < -0.25 |
| VFTVHNHQNERFRI | < -0.25 |
| VFTYFPDVPAFIASAGILWP | < -0.25 |

A second format for part of the listing above.
Substance | growth estimate
VDVRFLLV | < -0.25
VDWLAMLERSIVIFQRPGDT | < -0.25
VDWM | -0.231
VDYIYSVPMWSGTFQ | < -0.25
VEAYGHSIVCKLGVCWGRVF | < -0.25
VECLTIPLEARLRLVGCRRL | < -0.25
VECTRRL | < -0.25
VEFGSFICIAGPPRPDSSLQ | < -0.25
VEGLGATGTRWYG | < -0.25
VELEAFG | < -0.25
VELQGTIITVTNAFLVILFF | -0.245
VELVSAIGLELMRTIP | < -0.25
VEPKHAGMASLLGPRGPPRS | < -0.25
VEPVLNLLGTPSSLREWHNM | < -0.25
VERCSGQCPCS | < -0.25
VERDGIASQLSYG | < -0.25
VERETISTTPNGVWALRGSP | < -0.25
VESAGFTTEGIIVRSTPD | < -0.25
VESVRAPQ | < -0.25
VETRELAFHGFDVGALEYAG | < -0.25
VETRVRVLQRRLVRTHYPQR | < -0.25
VETVGTTDLTYRALVKRRLW | < -0.25
VEV | -0.242 ± 0.011
VEVEMCDSYGSASDSADQTG | < -0.25
VEVLI | < -0.25
VFACSVVYEGIGSVWASIFP | < -0.25
VFEAW | < -0.25
VFEVLCTACISVGEVTHARP | < -0.25
VFEVLLSFSFEVMLSNDRYL | < -0.25
VFGFCHVARKWGNPLVKFSR | < -0.25
VFGHSASRKEWIIVQIGACN | < -0.25
VFGRRESGLSGESRTGIRSL | < -0.25
VFL | < -0.25
VFLERAQRSRY | < -0.25
VFLTSVTLLPVAQGPQV | < -0.25
VFNIVT | -0.229
VFNY | < -0.25
VFPFGVRLQGVSKMGAP | < -0.25
VFQKAR | < -0.25
VFQNLTPHRTQHFSESRIAP | < -0.25
VFQPCI | < -0.25
VFQSWSLPCGALREAAWG | < -0.25
VFRASHR | < -0.25
VFRFCIG | < -0.25
VFRGRQS | < -0.25
VFRTVTIFESEALVEYHQVP | < -0.25
VFS | < -0.25
VFSIGLNGDSIYKSKAVCRR | < -0.25
VFSRQEYVLVGLFTTHY | < -0.25

Additional results

| Substance | growth estimate |
| --- | --- |
| VFVFT | < -0.25 |
| VFYDSSEAISFKGSDSRLIR | < -0.25 |
| VGA | < -0.25 |
| VGAGKDRERPGRLVATCTSH | < -0.25 |
| VGALSPMTSRPPCHSHGT | < -0.25 |
| VGAWYRPCRSRLLIVASAEP | -0.205 |
| VGCSG | < -0.25 |
| VGCVVPTSRQSERMRQGGSP | < -0.25 |
| VGDPASGPINKNGRSKLQSS | < -0.25 |
| VGDSSKYLTNYKGLGLP | < -0.25 |
| VGDVTTERRGIARVSLPAWV | < -0.25 |
| VGELD | < -0.25 |
| VGESARLGCTERFWAMLSET | < -0.25 |
| VGETEVDAATR | < -0.25 |
| VGFAPSRQCGPFR | < -0.25 |
| VGFCGRTIFQALAG | < -0.25 |
| VGFWTSSLTVVG | < -0.25 |
| VGGG | < -0.25 |
| VGGGQTSSERR | < -0.25 |
| VGGIDLRMRCSLYLPN | < -0.25 |
| VGGMSPFTRKWYPEKPLLTA | < -0.25 |
| VGGNPPTGCTRDEGLKNSWA | < -0.25 |
| VGGRLVVPSTANISVGEYCA | < -0.25 |
| VGGSSQFVNERQ | < -0.25 |
| VGGWLQWIGIWVYPEMLEP | < -0.25 |

| Substance | growth estimate |
| --- | --- |
| VGHIHRTDDSVSTVSKLLWR | < -0.25 |
| VGIGWSIGR | < -0.25 |
| VGIPTSHGALRSISASVHKY | < -0.25 |
| VGIYEWRECRTRYTWPCYSA | < -0.25 |
| VGKRIG | < -0.25 |
| VGLETQRPNLVRACCRVLHR | < -0.25 |
| VGLFQLTPVAIRPRVWRRIP | < -0.25 |
| VGLSANT | < -0.25 |
| VGLSCFGPLFG | < -0.25 |
| VGLTRVVHSQGSKSSVRLES | < -0.25 |
| VGLYHITSLDILVGLINR | < -0.25 |
| VGMIPGQDDRRI | < -0.25 |
| VGMSCKRMRKPQ | < -0.25 |
| VGNQTQLR | < -0.25 |
| VGPKLRPGVRPGYGSSQMDR | < -0.25 |
| VGPLSWELPY | -0.244 |
| VGPLWGMTSSTGSGVSSLFT | < -0.25 |
| VGPQGDCVAGVT | < -0.25 |
| VGPQMGTGAEMAVDVMLIYT | < -0.25 |
| VGPRTACSPEPRLGAS | < -0.25 |
| VGPVHRGATV | < -0.25 |
| VGQA | < -0.25 |
| VGQLEATVAKSSRYNI | < -0.25 |
| VGQRDISPAYRVCWRLHSVP | < -0.25 |
| VGRATQSTRVATSP | < -0.25 |

| Substance | growth estimate |
| --- | --- |
| VGRHRINVRSPSLMSVPSGA | < -0.25 |
| VGRPGAGSCTSIERG | < -0.25 |
| VGRRAYKRKDW | < -0.25 |
| VGRRSISGEGLIV | < -0.25 |
| VGSFGIMRGQFASDSNPDVS | < -0.25 |
| VGSGPHGSCSK | < -0.25 |
| VGSLPMDSI | < -0.25 |
| VGSPSQISCIMRERFLLQR | < -0.25 |
| VGSPTPE | < -0.25 |
| VGSRSASVWTSRWSER | < -0.25 |
| VGTFHDPITEHDISHQK | < -0.25 |
| VGWGLPLLARNRFRLTPQTR | < -0.25 |
| VGWSGH | < -0.25 |
| VGYGCGGFD | < -0.25 |
| VGYTSIEDSRILMPNDQ | < -0.25 |
| VHARVFHTDTQNGGMQFERI | < -0.25 |
| VHEPNLFYAQCKSYPQVWSL | < -0.25 |
| VHFQTMYSQKWSWARQK | < -0.25 |
| VHGESRYHPTTRLEPES | < -0.25 |
| VHKVNALKLCYFLISVRLIL | < -0.25 |
| VHLNGRGGVPSLCQRRQHQL | < -0.25 |
| VHPRVYRDISTFAK | < -0.25 |
| VHQRSPPTAGSSSWIKVPDP | < -0.25 |
| VHRE | < -0.25 |
